Literature values as cited in patent publication US11129897B2, “Fast-acting plant-based medicinal compounds and nutritional supplements” (RECEPTOR HOLDINGS, INC., priority 2016, dated 2021).
Some of these results come from one statement about several compounds together.

Conditions: as plotted in FIG. 1B; cited from earlier work

Molecule	aqueous solubility
Nc1nc2c(ncn2COCCO)c(=O)[nH]1 [acyclovir]	more than 0.15 mg/ml
MT-II	more than 0.15 mg/ml
PTH 1-34: parathyroid hormone 1-34	more than 0.15 mg/ml
heparin	more than 0.15 mg/ml
